{
  "source": "paper PMC3808384",
  "key": {"[1]": {"biological_target": "HA tagged hERG1a N861I (human) (UniProt Q12809)", "assay": "co-IP; HA tagged hERG1a mutants transfected into stable hERG1a-FLAG HEK293 cells; lysate in TBS + 1% NP40; precipitated with HA.11 anti-HA antibody and protein G Sepharose at 4°C; blot probed with anti-HA and anti-FLAG"}, "[2]": {"biological_target": "HA tagged hERG1a N861H (human) (UniProt Q12809)", "assay": "co-IP; HA tagged hERG1a mutants transfected into stable hERG1a-FLAG HEK293 cells; lysate in TBS + 1% NP40; precipitated with HA.11 anti-HA antibody and protein G Sepharose at 4°C; blot probed with anti-HA and anti-FLAG"}},
  "note": "Results are given in words; binding and its absence hold for the method and conditions named. In cells and extracts the contact can be indirect. Some results given as binding are weak or reduced against the parent protein; the word gives no strength.",
  "data": [
    {"substance": "hERG1a-FLAG (wild-type Kv11.1 channel subunit) (from UniProt Q12809 1-1159)", "values": [
      {"measurement": "binding", "setting": "[1]", "value": "binds"},
      {"measurement": "binding", "setting": "[2]", "value": "binds"}
    ]}
  ]
}
